# Assay results published in PubChem BioAssay AID504834 (National Center for Advancing Translational Sciences (NCATS), 2011).
# Among all 320,000 compounds or so, about 22,000 (6.9%) were called active. The inconclusive results got no clear call from the source; some entries with a clear call stand among them for comparison. The call rests on the fitted dose curve; in most records, active means well fitted inhibition curve with a large enough effect; inconclusive means small, poorly fitted or top-dose-only effect, or another doubt; inactive means no such curve, though single readings can be large or run the other way. Potencies of inconclusive entries are doubtful fits and often do not repeat.
# Assay: Primary qHTS for delayed death inhibitors of the malarial parasite plastid, 96 hour incubation
# Settings: P. falciparum luciferase reporter growth; series mostly up to 28.7 µM; activity change, negative = inhibition: at the top concentration
# In short: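 Readout is luminescence from an integrated firefly luciferase in P. falciparum. Red cells, 2% hematocrit and 0.05% parasitemia final, were cultured with compound through two parasite generations (96 hours) at 37 C, 5% CO2.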
# On the % scale 0 is the no-effect control and ±100 the full control effect; potency means the concentration at half of the fitted maximal effect.
SMILES,"activity change, negative = inhibition",Potency
CC(=O)NCCNC(=O)c1ccc(CSc2ccc(Cl)cc2)cc1,inactive: 239%,
CCOC(=O)C1(CCc2ccccc2)CCN(Cc2ccco2)CC1,,"inconclusive: 10.4 µM [inhibitor, single point]"
COc1cccc2oc3cc(C#Cc4ccccn4)ccc3c(=O)c12,,"inconclusive: 18.5 µM [inhibitor, single point]"
CC(NC(=O)CC1CCCCC1)c1ccccc1 (configuration not stated),,"inconclusive: 18.5 µM [inhibitor, single point]"
COc1ccc(-c2nc(-n3c(C)c(C(C)=O)c(C(C)=O)c3C)sc2C)cc1OC,,"inconclusive: 0.0029 µM [inhibitor, full curve, poor fit]"
O=C(NNC1=NCCC1)c1cccc(Br)c1,,"inconclusive: 0.0033 µM [inhibitor, full curve, poor fit]"
CC(=O)N/N=c1\sc2ccccc2n1C,,"inconclusive: 3.29 µM [inhibitor, full curve, poor fit]"
O=C(CCCc1ccccc1)NCCCc1ccccc1,inactive: -10.9%,
COC(=O)NCC(c1cccnc1)N1CCOCC1 (configuration not stated),inactive: 40.1%,
CCc1ccc(NC(=O)Cn2c(=O)c3cccn3c3ccccc32)cc1,,"inconclusive: 0.0029 µM [inhibitor, full curve, poor fit]"
[N-]=[N+]=CC(=O)C(c1ccccc1)(c1ccccc1)c1ccccc1,,"inconclusive: 3.7 µM [inhibitor, partial curve]"
Cc1cccc(NC(=S)N(CCc2ccncc2)C(C)C)c1C,,"inconclusive: 0.0037 µM [inhibitor, full curve, poor fit]"
CN(C)S(=O)(=O)Oc1ccsc1C(=O)Nc1ccc(Cl)cc1,,"inconclusive: 14.7 µM [inhibitor, partial curve, poor fit]"
O=C(N1CCOCC1)C12CC3CC(C1)CC(n1cnc(Cl)n1)(C3)C2,,"inconclusive: 11.7 µM [inhibitor, single point]"
O=C(CN1CCN(c2ncccn2)CC1)NCCC1=CCCCC1,,"inconclusive: 11.7 µM [inhibitor, partial curve, poor fit]"
O=C(CN1C(=O)CSc2ccc(S(=O)(=O)N3CCCCC3)cc21)NCc1ccccc1,,active: 4.15 µM
CC(=O)Nc1ccc(C2=CC(=O)C[C@H](c3ccc4c(c3)OCO4)C2)cc1,inactive: -14.7%,
COC(=O)C1=C(C)NC(=O)NC1c1ccc2ccccc2c1 (configuration not stated),,active: 10.4 µM
O=C(NC1CC2CCCC(C1)N2C(=S)NCCc1ccccc1)C1CC1 (configuration not stated),inactive: 21.3%,
O=[N+]([O-])c1ccc(CNc2ccc(F)cc2)s1,inactive: -20.6%,
O=C(CCNc1ccc(F)cc1)c1cccc([N+](=O)[O-])c1,inactive: 0%,
CCOC(=O)CNS(=O)(=O)c1c(C)noc1C,inactive: 5.61%,
CC(=O)Nc1cccc(-c2nnc(SCC(=O)n3c4c(c5ccccc53)CCCC4)n2C)c1,,"inconclusive: 0.0033 µM [inhibitor, full curve, poor fit]"
c1ccc2[nH]c(SCc3cscn3)nc2c1,,"inconclusive: 9.28 µM [inhibitor, single point]"

SMILES,"activity change, negative = inhibition",Potency
COc1cc(C(=O)Nc2ccc3nc4n(c(=O)c3c2)CCCCC4)cc(OC)c1OC,,active: 2.62 µM
CS(=O)(=O)c1ccc(Cl)c(NC(=O)COC(=O)C23CC4CC(CC(C4)C2)C3)c1,,active: 8.28 µM
COc1ccc(OC)c(CNC(=O)C2CCCN(C(=O)N(C)C)C2)c1 (configuration not stated),,"inconclusive: 13.1 µM [inhibitor, single point]"
Nc1nc2cc(S(=O)(=O)NC3=NCCCCC3)ccc2s1,,"inconclusive: 13.1 µM [inhibitor, partial curve, poor fit]"
COc1ccc(S(=O)(=O)N2CCCC2C(=O)Nc2ccc(C(C)=O)cc2)cc1 (configuration not stated),,"inconclusive: 9.28 µM [inhibitor, partial curve, poor fit]"
COc1ccc(C(=O)COC(=O)CCN2C(=O)C3C4CC(C(Br)C4Br)C3C2=O)cc1 (configuration not stated),,"inconclusive: 16.5 µM [inhibitor, single point]"
CC(C)[C@@H](C(=O)NC1CC1)N1C(=O)N2CCc3c([nH]c4ccccc34)[C@@]2(C)C1=O,,"inconclusive: 11.7 µM [inhibitor, partial curve, poor fit]"
CCN(CC)S(=O)(=O)c1ccc(C(=O)OCn2c(SC)nnc(C)c2=O)cc1,inactive: -3.32%,
CCCC(C)NC(=O)c1ccc(C2SCC(=O)N2Cc2ccco2)cc1 (configuration not stated),,"inconclusive: 18.5 µM [inhibitor, single point]"
N#Cc1c(SCC(N)=O)nsc1SCc1ccccc1Cl,,"inconclusive: 0.104 µM [inhibitor, full curve, poor fit]"
CCOC(=O)C(C(=O)NCc1cccc(OC)c1)c1ncc(C(F)(F)F)cc1Cl (configuration not stated),,"inconclusive: 0.415 µM [inhibitor, partial curve, poor fit]"
COc1ccc(NC(=O)CSc2nnc(N)s2)cc1,inactive: -23.7%,
COc1cc(/C=N/NC(N)=O)cc(Br)c1OCc1ccccc1C,,"inconclusive: 0.37 µM [inhibitor, partial curve, poor fit]"
CC(C)N(Cc1cn(C)nc1-c1cccc(Cl)c1)Cc1nccn1C,,"inconclusive: 18.5 µM [inhibitor, single point]"
COc1ccc(OC)c(NC(=O)CSc2nnnn2C2CCCC2)c1,,"inconclusive: 10.4 µM [inhibitor, single point]"
CNC(=S)N1CCN(C(=O)c2ccco2)CC1,,"inconclusive: 18.5 µM [inhibitor, single point]"
O=C(Nc1cccc(-n2cnnn2)c1)C1CCCN(Cc2cccc(C(F)(F)F)c2)C1 (configuration not stated),inactive: -23.5%,
COc1ccc(/C=N/NC(=O)COc2cc(C)cc(C)c2)cc1COC(C)=O,inactive: 0.332%,
Cc1c(C(=O)N2CCOCC2)oc2ccc(Br)cc12,inactive: 13.9%,
O=C(NC(=S)NCC1CCCO1)c1ccco1 (configuration not stated),inactive: 6.93%,
CSc1ccccc1C(=O)OCC(=O)N1CCCC1=O,,"inconclusive: 9.28 µM [inhibitor, partial curve, poor fit]"
CC(C)Cn1c(=S)[nH]c2cc(C(=O)NCc3ccccc3F)ccc2c1=O,,"inconclusive: 11.7 µM [inhibitor, partial curve]"
CC1CCC(N2CC(=O)N(Cc3ccc4c(c3)OCO4)C(c3ccc(F)cc3)C2=O)CC1 (configuration not stated),,active: 9.28 µM
O=C(NCCc1ccc(C(F)(F)F)cc1)C1CCC(=O)N(CCc2cccc(F)c2)C1 (configuration not stated),inactive: 13.5%,

SMILES,"activity change, negative = inhibition",Potency
COc1ccc(C(=O)NCc2ccc3c(c2)OCO3)cc1S(=O)(=O)NCc1ccc(Cl)cc1,,"inconclusive: 18.5 µM [inhibitor, single point]"
COc1ccc(/C=C/C(=O)NCc2c(C)nn(C)c2C)cc1COc1ccc(Br)cc1,,"inconclusive: 14.7 µM [inhibitor, single point]"
COc1ccc(CCN2CC(C(=O)NCc3nc(C)c(C)s3)CCC2=O)cc1 (configuration not stated),,"inconclusive: 18.5 µM [inhibitor, partial curve, poor fit]"
CCc1nnc(NC(=O)CC(C)c2ccccc2)s1 (configuration not stated),inactive: -41.2%,
Cc1ccc(CN2C(=O)N/C(=C/c3ccc(-c4ccc(C(=O)O)cc4)o3)C2=O)cc1,inactive: -0.997%,
CN1CCN(C(=S)c2ccc(Br)cc2)CC1,,"inconclusive: 18.5 µM [inhibitor, single point]"
CN(CCOCCOc1ccc2ccccc2c1)Cc1ccccc1,,active: 14.7 µM
O=C(O)c1oc2ccccc2c1-n1cccc1,,"inconclusive: 9.28 µM [inhibitor, single point]"
O=C(C[n+]1cc(Br)cc2ccccc21)c1ccc(F)cc1,,"inconclusive: 8.28 µM [inhibitor, partial curve]"
COc1ccc(CCNC(=O)c2sc3nc4n(c(=O)c3c2C)CCC4)cc1,,"inconclusive: 5.86 µM [inhibitor, partial curve]"
O=C(COc1nsnc1N1CCOCC1)Nc1ccc([N+](=O)[O-])cc1,inactive: -22.2%,
O=C(c1ccc(CS(=O)c2cccc(Cl)c2)o1)N1CCN(c2ccccn2)CC1 (configuration not stated),,active: 7.38 µM
CCOc1cc(NC(=O)Nc2ccccc2)c(OCC)cc1NC(=O)CC,,"inconclusive: 10.4 µM [inhibitor, single point]"
CSc1ccc(CN(C)C(C)C(=O)Nc2ccc(F)c(F)c2F)cc1 (configuration not stated),inactive: 30.7%,
CCCN(CCC)CCCNC(=O)c1cc2c(=O)[nH]c3ccccc3c2s1,,"inconclusive: 1.85 µM [inhibitor, full curve, poor fit]"
O=C(NCCc1ccc([N+](=O)[O-])cc1)c1ccccc1,,"inconclusive: 18.5 µM [inhibitor, single point]"
O=C(Nc1cccc([N+](=O)[O-])c1)c1ccc2c(c1)OCCO2,,"inconclusive: 16.5 µM [inhibitor, single point]"
CC(C)=NOc1cc(NC(=O)CCl)cc([N+](=O)[O-])c1,,"inconclusive: 13.1 µM [inhibitor, single point]"
COc1cc(C(C)=O)ccc1Oc1ncnc2c1cnn2-c1ccc(F)cc1,inactive: 177%,
COc1ccc(CN2CCCC(N3CCN(c4cccc(Cl)c4)CC3)C2)cc1OC (configuration not stated),,active: 9.28 µM
O=S(=O)(CCSc1nc2ccccc2o1)c1nc2ccccc2s1,,"inconclusive: 18.5 µM [inhibitor, single point]"
CC(Oc1ccc(Cl)cc1)C(=O)Nc1ccccc1C(=O)N1CCOCC1 (configuration not stated),,"inconclusive: 0.0828 µM [inhibitor, partial curve, poor fit]"
O=C(COc1ccccc1)N(CCc1ccccc1)c1nc(-c2ccc(F)cc2)cs1,,"inconclusive: 0.522 µM [inhibitor, full curve, poor fit]"
COc1cc(CN(C2CCCCC2)S(=O)(=O)c2ccc(S(=O)(=O)N(C)C3CCCCC3)cc2)cc(OC)c1OC,,active: 8.28 µM

# A second format for some results above.
SMILES	activity change, negative = inhibition	Potency
COc1ccc(C(=O)NCc2ccc3c(c2)OCO3)cc1S(=O)(=O)NCc1ccc(Cl)cc1		inconclusive: 18.5 µM [inhibitor, single point]
COc1ccc(/C=C/C(=O)NCc2c(C)nn(C)c2C)cc1COc1ccc(Br)cc1		inconclusive: 14.7 µM [inhibitor, single point]
COc1ccc(CCN2CC(C(=O)NCc3nc(C)c(C)s3)CCC2=O)cc1 (configuration not stated)		inconclusive: 18.5 µM [inhibitor, partial curve, poor fit]
O=C(O)c1oc2ccccc2c1-n1cccc1		inconclusive: 9.28 µM [inhibitor, single point]
O=C(C[n+]1cc(Br)cc2ccccc21)c1ccc(F)cc1		inconclusive: 8.28 µM [inhibitor, partial curve]
COc1ccc(CCNC(=O)c2sc3nc4n(c(=O)c3c2C)CCC4)cc1		inconclusive: 5.86 µM [inhibitor, partial curve]
O=C(COc1nsnc1N1CCOCC1)Nc1ccc([N+](=O)[O-])cc1	inactive: -22.2%	
O=C(c1ccc(CS(=O)c2cccc(Cl)c2)o1)N1CCN(c2ccccn2)CC1 (configuration not stated)		active: 7.38 µM
CCCN(CCC)CCCNC(=O)c1cc2c(=O)[nH]c3ccccc3c2s1		inconclusive: 1.85 µM [inhibitor, full curve, poor fit]
O=C(NCCc1ccc([N+](=O)[O-])cc1)c1ccccc1		inconclusive: 18.5 µM [inhibitor, single point]
O=C(Nc1cccc([N+](=O)[O-])c1)c1ccc2c(c1)OCCO2		inconclusive: 16.5 µM [inhibitor, single point]
CC(C)=NOc1cc(NC(=O)CCl)cc([N+](=O)[O-])c1		inconclusive: 13.1 µM [inhibitor, single point]
COc1cc(C(C)=O)ccc1Oc1ncnc2c1cnn2-c1ccc(F)cc1	inactive: 177%	
COc1ccc(CN2CCCC(N3CCN(c4cccc(Cl)c4)CC3)C2)cc1OC (configuration not stated)		active: 9.28 µM
O=S(=O)(CCSc1nc2ccccc2o1)c1nc2ccccc2s1		inconclusive: 18.5 µM [inhibitor, single point]
O=C(COc1ccccc1)N(CCc1ccccc1)c1nc(-c2ccc(F)cc2)cs1		inconclusive: 0.522 µM [inhibitor, full curve, poor fit]
COc1cc(CN(C2CCCCC2)S(=O)(=O)c2ccc(S(=O)(=O)N(C)C3CCCCC3)cc2)cc(OC)c1OC		active: 8.28 µM
